Assay results reported in patent US8067424B2, “Selective inhibitors for cyclin-dependent kinases” (Emory University, priority 2007, dated 2011).
The match of structure and compound is tentative.

Sequences of proteins named here, by UniProt entry; tags and fusion partners are left off.
UniProt P50613, whole entry: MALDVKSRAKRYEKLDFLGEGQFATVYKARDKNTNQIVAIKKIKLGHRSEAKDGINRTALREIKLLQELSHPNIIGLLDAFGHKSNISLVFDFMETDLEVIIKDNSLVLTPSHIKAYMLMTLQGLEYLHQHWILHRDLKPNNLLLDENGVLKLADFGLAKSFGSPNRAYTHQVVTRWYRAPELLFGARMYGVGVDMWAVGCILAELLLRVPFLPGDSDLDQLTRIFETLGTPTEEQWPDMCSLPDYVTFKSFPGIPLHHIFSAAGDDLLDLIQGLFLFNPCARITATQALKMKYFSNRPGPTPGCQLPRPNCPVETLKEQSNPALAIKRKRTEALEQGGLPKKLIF
UniProt P51946, whole entry partner: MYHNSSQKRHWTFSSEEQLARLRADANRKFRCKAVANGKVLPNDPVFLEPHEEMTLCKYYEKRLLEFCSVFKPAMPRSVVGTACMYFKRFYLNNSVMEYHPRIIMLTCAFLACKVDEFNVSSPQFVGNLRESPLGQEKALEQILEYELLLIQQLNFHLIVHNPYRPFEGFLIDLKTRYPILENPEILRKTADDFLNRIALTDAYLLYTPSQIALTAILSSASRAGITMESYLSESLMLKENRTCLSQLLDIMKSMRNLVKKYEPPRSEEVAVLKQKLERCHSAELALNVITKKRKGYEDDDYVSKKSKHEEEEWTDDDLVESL
UniProt P51948, whole entry partner: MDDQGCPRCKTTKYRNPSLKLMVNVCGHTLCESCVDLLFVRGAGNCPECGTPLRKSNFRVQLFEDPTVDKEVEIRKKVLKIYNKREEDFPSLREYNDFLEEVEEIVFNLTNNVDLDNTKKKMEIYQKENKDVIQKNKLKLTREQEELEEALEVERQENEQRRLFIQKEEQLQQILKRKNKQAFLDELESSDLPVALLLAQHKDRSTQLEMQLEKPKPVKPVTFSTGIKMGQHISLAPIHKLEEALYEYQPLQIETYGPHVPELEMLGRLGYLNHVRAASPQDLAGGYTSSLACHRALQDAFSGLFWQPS

What was measured:
MCF-7 cell line = settings: MCF-7, SRB assay, 24 hours
[1] = target: CDK7 complex (CDK7, Cyclin H, MAT1) (Homo sapiens, UniProt P50613); test: CDK7/CycH/MAT1 trimeric complex kinase assay (PKLight luciferase); settings: mean of three (standard deviation)

SMILES: CC(C)c1cnn2c(N(Cc3ccc(S(=O)(=O)N(C)C)cc3)C(=O)OC(C)(C)C)cc(Cl)nc12
- TGI (MCF-7 cell line): 31 µM
- IC50 (MCF-7 cell line; mean of three experiments): 51 µM
- CC50 (MCF-7 cell line; read-out: LC50): 16 µM
- CDK7 % remaining kinase activity after incubation with 100 nM of compound [1]: 63% (9.0)
